Experimental findings from the supplement of paper PMC12819154, “High-throughput peptide-centric local stability assay extends protein–ligand identification to membrane proteins, tissues and bacteria” (Nature Structural & Molecular Biology, 2025) are described below.

Protein sequences, listed by entry. Tags and fused reporters are not part of them. Lines headed by an entry give the natural chain unless they say otherwise; changes in a name come on top.
UniProt P56655: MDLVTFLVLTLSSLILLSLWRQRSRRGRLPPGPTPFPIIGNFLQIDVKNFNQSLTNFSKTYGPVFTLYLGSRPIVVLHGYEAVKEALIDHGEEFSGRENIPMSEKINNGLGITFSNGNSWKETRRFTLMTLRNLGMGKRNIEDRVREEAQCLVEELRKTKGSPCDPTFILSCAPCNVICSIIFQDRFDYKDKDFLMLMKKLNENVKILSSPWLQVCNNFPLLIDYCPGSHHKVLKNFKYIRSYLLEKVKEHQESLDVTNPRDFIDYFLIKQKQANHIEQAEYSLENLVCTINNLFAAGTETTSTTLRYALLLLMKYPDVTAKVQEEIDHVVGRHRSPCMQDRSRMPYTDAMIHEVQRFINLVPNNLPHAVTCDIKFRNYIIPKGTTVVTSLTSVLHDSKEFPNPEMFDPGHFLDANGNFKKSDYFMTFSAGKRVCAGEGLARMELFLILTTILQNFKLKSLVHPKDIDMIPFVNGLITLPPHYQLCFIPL
UniProt P57725: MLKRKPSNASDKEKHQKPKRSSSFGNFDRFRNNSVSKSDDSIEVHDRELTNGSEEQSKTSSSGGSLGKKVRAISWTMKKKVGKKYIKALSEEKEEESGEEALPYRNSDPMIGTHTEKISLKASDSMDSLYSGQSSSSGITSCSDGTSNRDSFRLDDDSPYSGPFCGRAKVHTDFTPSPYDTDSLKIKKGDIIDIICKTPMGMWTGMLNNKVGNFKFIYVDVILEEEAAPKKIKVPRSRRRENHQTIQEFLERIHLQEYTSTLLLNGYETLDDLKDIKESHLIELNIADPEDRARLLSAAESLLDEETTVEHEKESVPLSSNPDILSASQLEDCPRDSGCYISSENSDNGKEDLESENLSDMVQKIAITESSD
UniProt P61460: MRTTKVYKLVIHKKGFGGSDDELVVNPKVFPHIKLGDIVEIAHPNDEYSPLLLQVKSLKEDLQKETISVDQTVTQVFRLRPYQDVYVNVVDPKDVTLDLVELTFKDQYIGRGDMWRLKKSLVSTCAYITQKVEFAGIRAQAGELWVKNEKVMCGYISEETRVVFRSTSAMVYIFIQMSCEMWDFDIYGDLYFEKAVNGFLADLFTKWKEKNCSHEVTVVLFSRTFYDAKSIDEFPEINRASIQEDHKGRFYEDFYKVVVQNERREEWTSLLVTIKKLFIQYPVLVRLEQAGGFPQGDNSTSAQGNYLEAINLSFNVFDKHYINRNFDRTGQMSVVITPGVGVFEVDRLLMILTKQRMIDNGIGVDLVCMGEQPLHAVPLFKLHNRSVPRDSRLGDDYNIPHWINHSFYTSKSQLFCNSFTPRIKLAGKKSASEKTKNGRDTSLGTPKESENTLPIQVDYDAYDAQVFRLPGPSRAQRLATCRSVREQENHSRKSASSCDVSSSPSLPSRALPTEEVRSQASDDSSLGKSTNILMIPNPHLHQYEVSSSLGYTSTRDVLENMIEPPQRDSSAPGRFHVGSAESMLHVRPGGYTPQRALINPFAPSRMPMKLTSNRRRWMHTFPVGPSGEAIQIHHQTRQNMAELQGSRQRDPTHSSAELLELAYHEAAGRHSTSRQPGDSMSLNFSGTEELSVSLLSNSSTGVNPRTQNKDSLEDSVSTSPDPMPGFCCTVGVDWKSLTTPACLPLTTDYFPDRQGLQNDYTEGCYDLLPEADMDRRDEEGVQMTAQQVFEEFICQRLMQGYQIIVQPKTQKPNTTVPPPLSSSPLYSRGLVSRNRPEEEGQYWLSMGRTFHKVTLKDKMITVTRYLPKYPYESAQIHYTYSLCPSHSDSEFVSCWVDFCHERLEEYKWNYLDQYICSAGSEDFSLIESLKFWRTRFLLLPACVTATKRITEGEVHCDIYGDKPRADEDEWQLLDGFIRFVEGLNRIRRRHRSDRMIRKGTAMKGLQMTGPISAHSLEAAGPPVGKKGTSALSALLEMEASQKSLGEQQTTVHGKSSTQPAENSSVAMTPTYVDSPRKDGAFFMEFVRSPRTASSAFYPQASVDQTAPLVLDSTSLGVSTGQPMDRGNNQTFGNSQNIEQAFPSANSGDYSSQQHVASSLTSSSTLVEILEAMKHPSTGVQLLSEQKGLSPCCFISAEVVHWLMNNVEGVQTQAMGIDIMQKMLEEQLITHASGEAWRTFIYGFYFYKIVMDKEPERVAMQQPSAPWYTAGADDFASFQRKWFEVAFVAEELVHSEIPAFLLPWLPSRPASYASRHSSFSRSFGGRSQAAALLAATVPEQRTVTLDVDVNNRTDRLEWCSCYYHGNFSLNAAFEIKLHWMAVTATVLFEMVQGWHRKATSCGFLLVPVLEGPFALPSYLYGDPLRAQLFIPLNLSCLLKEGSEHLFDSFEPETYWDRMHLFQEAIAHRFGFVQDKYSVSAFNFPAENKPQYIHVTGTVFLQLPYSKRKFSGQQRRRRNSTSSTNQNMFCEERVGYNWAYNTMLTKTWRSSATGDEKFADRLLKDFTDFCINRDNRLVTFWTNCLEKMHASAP
UniProt P63089: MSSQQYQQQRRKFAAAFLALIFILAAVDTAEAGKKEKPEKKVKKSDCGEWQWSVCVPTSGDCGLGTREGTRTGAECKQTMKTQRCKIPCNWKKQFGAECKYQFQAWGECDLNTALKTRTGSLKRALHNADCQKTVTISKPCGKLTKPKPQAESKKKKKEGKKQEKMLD
UniProt P54843: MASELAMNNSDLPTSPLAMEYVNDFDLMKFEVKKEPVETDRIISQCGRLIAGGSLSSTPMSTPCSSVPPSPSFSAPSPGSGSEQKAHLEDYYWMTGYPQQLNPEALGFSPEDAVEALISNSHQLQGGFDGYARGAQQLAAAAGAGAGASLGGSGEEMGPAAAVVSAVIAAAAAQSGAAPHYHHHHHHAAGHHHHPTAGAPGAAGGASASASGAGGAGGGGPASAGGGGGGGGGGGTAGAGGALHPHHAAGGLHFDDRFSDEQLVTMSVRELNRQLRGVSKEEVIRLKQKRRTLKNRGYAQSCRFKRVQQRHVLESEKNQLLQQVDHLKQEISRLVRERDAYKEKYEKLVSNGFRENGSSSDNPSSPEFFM
UniProt P56394: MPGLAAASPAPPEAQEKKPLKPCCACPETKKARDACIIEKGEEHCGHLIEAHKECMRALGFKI
UniProt P58801, whole entry: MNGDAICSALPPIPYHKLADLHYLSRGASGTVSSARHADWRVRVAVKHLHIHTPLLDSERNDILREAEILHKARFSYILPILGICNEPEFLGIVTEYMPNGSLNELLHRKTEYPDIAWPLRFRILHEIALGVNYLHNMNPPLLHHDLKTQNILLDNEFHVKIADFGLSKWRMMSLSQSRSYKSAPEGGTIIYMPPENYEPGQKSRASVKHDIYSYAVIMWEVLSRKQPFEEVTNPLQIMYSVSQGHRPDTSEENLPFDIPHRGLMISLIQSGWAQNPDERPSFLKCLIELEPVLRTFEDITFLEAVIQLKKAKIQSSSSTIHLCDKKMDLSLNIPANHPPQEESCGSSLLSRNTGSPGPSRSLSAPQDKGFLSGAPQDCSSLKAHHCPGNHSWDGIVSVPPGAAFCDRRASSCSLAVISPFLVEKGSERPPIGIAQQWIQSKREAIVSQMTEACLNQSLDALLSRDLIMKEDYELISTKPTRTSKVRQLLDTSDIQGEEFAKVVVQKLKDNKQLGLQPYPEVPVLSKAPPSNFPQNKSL
UniProt P56581: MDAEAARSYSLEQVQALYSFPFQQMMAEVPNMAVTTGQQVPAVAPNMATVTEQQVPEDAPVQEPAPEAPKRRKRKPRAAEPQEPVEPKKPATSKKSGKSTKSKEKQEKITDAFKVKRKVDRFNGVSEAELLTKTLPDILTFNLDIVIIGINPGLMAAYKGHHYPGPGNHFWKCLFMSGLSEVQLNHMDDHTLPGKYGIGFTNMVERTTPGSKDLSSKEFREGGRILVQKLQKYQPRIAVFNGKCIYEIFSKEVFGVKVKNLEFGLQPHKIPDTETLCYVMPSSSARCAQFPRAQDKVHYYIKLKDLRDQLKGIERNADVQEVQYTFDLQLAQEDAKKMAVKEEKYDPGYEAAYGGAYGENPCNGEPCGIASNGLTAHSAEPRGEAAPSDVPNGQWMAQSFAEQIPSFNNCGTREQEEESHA
UniProt P55937: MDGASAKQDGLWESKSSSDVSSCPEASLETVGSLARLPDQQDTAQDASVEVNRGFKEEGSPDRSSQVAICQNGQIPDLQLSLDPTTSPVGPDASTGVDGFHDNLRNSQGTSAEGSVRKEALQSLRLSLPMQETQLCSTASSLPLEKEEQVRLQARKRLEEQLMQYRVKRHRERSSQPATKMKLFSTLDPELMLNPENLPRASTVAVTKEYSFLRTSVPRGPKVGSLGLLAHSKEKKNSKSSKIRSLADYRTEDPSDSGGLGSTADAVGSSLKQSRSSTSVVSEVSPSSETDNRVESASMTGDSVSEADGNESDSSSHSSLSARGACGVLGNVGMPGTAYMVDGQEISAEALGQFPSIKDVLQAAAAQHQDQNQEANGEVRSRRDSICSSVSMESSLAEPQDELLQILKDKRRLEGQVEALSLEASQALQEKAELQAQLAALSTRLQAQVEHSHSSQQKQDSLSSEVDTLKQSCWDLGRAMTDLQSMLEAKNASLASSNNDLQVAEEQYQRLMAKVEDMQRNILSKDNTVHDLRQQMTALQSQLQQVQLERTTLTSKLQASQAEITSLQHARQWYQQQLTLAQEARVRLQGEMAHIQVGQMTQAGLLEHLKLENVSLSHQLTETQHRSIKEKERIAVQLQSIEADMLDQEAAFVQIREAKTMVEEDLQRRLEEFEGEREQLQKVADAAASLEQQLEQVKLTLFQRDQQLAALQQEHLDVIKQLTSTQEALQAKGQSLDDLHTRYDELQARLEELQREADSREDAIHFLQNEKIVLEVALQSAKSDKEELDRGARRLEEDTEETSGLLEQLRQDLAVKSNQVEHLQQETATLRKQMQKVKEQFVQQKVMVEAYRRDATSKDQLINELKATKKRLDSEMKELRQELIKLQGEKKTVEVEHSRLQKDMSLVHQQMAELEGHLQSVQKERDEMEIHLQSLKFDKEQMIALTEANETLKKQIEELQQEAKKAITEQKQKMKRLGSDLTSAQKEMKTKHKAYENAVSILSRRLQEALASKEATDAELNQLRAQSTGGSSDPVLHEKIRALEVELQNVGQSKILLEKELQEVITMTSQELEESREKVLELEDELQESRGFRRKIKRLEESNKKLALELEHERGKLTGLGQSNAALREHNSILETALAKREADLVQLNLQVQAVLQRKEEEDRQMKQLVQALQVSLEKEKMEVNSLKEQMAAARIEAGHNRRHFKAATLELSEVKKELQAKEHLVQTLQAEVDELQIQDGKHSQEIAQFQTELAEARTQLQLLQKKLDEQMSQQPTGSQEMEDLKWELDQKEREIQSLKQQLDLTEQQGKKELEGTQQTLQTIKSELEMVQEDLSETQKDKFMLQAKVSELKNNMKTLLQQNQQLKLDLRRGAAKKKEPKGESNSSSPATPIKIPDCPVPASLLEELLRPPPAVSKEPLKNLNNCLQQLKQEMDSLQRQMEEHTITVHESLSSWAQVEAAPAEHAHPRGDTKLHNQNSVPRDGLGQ
UniProt P59279: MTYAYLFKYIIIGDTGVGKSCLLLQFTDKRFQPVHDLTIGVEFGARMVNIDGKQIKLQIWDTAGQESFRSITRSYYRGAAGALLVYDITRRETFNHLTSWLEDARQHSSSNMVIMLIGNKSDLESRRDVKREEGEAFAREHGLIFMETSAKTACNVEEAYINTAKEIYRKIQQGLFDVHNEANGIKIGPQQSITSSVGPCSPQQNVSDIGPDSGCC
UniProt P61759, whole entry: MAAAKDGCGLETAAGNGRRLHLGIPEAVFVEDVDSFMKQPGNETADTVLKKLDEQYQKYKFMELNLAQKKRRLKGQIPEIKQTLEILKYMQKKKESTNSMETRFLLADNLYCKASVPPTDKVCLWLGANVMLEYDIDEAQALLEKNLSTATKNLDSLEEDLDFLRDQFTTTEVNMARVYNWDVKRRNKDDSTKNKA
UniProt P59016: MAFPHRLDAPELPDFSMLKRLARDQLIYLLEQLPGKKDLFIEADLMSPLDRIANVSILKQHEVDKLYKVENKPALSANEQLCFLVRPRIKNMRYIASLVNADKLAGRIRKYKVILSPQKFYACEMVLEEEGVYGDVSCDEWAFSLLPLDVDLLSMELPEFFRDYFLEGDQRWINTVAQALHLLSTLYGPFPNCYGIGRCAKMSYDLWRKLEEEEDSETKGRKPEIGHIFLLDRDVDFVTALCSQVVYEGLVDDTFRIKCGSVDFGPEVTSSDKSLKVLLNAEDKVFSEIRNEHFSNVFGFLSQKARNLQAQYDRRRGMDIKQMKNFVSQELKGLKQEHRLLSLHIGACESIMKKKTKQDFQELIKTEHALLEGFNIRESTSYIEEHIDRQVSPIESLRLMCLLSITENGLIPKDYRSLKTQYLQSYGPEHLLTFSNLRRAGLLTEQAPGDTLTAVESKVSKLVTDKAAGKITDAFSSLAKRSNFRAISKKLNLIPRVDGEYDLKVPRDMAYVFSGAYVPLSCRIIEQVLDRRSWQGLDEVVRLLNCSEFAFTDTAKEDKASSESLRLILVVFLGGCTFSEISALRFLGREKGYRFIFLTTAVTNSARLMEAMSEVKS

The list shows a part of the results. Small differences around the control level are noise.

Compound in the experiment: CN[C@@H]1C[C@H]2O[C@@](C)([C@@H]1OC)n1c3ccccc3c3c4c(c5c6ccccc6n2c5c31)C(=O)NC4 [staurosporine]
Briefly: log2 fold change of tryptic peptide abundance, ligand vs vehicle (limited proteolysis) (log2 ratio); higher = more trypsin-susceptible (destabilized). The following applies: ligand concentration: 20 uM; sample: mouse liver crude lysate; replicate design: treated separately.
For the target “UniProt P62962 (peptide sequence: CYEMASHLRR, peptide start residue: 128)”, the log2 fold change was -0.283.

Turning to “UniProt P56655 (peptide sequence: FTLMTLR, peptide start residue: 126)”, the log2 fold change was 0.0802.

As to “UniProt P57725 (peptide sequence: ALSEEKEEESGEEALPYR, peptide start residue: 88)”, the log2 fold change is -0.104.

As to “UniProt P54116 (peptide sequence: AKVIAAEGEMNASR, peptide start residue: 219)”, the log2 fold change is -0.227.

Consider “UniProt P58466 (peptide sequence: VDDVYSVLR, peptide start residue: 247)”, for which the log2 fold change is -0.718.

Take “UniProt P61460 (peptide sequence: ALPTEEVR, peptide start residue: 510)”: the log2 fold change was -0.117.

Regarding “UniProt P54761 (peptide sequence: ENGGASHPLLDQR, peptide start residue: 890)”, the log2 fold change was -0.244.

For “UniProt P63089 (peptide sequence: TVTISKPCGK, peptide start residue: 134)”, the log2 fold change is -0.224.

Regarding “UniProt P54843 (peptide sequence: GVSKEEVIR, peptide start residue: 277)”, the log2 fold change was -0.159.

Take “UniProt P56394 (peptide sequence: KPLKPCCACPETK, peptide start residue: 18)”: the log2 fold change was determined as 0.835.

In the case of “UniProt P58801 (peptide sequence: MMSLSQSR, peptide start residue: 172)”, the log2 fold change amounted to 0.495.

“UniProt P55194 (peptide sequence: LAAGASVLKR, peptide start residue: 313)”: the log2 fold change is 0.39.

For “UniProt P61750 (peptide sequence: NICFTVWDVGGQDKIRPLWR, peptide start residue: 60)”, the log2 fold change was -0.133.

For the target “UniProt P56695 (peptide sequence: AALVMYWK, peptide start residue: 180)”, the log2 fold change stood at 0.37.

“UniProt P62814 (peptide sequence: YAEIVHLTLPDGTK, peptide start residue: 68)”: the log2 fold change is 0.345.

As for “UniProt P56671 (peptide sequence: SHDGAVHKPYNCSHCGK, peptide start residue: 328)”, the log2 fold change is -0.561.

As to “UniProt P56581 (peptide sequence: AQDKVHYYIK, peptide start residue: 293)”, the log2 fold change came to 0.507.

In the case of “UniProt P61458 (peptide sequence: AVGWNEVEGR, peptide start residue: 22)”, the log2 fold change was -0.297.

Consider “UniProt P61219 (peptide sequence: RITTPYMTK, peptide start residue: 51)”, for which the log2 fold change is -0.454.

As for “UniProt P55937 (peptide sequence: RLEEFEGER, peptide start residue: 669)”, the log2 fold change was -0.595.

For the target “UniProt P58742 (peptide sequence: GQWINLPVLHLTK, peptide start residue: 40)”, the log2 fold change was 0.288.

Turning to “UniProt P57780 (peptide sequence: RTIPWLEDRVPQK, peptide start residue: 312)”, the log2 fold change was -0.478.

“UniProt P59279 (peptide sequence: QHSSSNMVIMLIGNK, peptide start residue: 106)”: the log2 fold change was determined as 0.303.

For the target “UniProt P57776 (peptide sequence: GVVQDLQQAISKLEAR, peptide start residue: 96)”, the log2 fold change was -0.405.

Consider “UniProt P61759 (peptide sequence: KKESTNSMETR, peptide start residue: 93)”, for which the log2 fold change was -0.437.

With “UniProt P59016 (peptide sequence: VDGEYDLKVPR, peptide start residue: 497)”, the log2 fold change was -0.351.

As to “UniProt P58735 (peptide sequence: FTGPLYYANKDFFLR, peptide start residue: 547)”, the log2 fold change was -0.283.

Regarding “UniProt P59235 (peptide sequence: SSLFHQGGR, peptide start residue: 299)”, the log2 fold change was found to be 0.00821.

Take “UniProt P55258 (peptide sequence: LEGNSPQGSSHGVK, peptide start residue: 177)”: the log2 fold change was -0.284.

For the target “UniProt P63017 (peptide sequence: MVNHFIAEFK, peptide start residue: 237)”, the log2 fold change stood at 0.43.

As to “UniProt P63037 (peptide sequence: YHPDKNPNEGEKFK, peptide start residue: 33)”, the log2 fold change was found to be 0.157.
